# Results reported in the supplement of paper PMC11732987, “Enantioselective OTUD7B fragment discovery through chemoproteomics screening and high-throughput optimisation” (Communications Chemistry, 2025).
# Sequences of proteins named here, by UniProt entry; tags and fusion partners are left off. A change or cut given only in a name is not applied to a line headed by its entry. Residues count along the entry.
# UniProt Q9BTY2: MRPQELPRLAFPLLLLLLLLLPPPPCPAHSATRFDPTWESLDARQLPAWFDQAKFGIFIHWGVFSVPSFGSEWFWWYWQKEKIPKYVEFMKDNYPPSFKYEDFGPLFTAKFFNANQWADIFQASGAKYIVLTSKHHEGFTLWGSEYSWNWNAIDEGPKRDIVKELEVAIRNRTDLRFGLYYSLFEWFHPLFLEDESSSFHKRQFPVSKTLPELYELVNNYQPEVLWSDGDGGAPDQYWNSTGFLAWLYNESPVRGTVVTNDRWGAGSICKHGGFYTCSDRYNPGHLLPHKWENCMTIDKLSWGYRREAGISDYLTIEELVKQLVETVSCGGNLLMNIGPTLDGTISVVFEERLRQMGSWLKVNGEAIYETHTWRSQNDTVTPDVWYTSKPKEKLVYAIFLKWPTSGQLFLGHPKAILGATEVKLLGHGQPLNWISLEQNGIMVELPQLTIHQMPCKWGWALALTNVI
# UniProt Q13451: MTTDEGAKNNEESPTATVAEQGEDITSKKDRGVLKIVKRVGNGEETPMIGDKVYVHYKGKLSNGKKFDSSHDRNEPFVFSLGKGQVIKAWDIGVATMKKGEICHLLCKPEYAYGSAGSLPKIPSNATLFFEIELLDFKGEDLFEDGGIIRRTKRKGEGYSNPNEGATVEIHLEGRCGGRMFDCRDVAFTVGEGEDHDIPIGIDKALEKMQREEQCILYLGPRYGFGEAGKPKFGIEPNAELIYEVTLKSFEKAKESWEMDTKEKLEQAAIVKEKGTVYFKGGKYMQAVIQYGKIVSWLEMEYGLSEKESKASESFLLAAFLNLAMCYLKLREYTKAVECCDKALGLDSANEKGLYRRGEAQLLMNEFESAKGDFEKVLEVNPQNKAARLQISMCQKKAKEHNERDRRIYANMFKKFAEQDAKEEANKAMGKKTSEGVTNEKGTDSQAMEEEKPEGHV
# UniProt Q13480, 365-384: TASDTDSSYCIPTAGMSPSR
# UniProt O95363: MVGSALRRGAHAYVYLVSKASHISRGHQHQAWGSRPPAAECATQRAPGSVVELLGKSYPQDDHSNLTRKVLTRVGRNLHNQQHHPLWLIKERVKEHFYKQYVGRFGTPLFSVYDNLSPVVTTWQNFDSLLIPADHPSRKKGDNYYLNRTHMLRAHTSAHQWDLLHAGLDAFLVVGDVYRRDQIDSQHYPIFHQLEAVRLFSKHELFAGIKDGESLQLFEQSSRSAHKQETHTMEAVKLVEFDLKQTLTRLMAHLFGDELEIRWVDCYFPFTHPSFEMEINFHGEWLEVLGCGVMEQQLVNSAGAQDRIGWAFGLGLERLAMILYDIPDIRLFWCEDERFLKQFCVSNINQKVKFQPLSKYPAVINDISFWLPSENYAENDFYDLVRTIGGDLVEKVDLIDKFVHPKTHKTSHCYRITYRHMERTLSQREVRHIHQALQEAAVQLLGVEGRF
# UniProt Q9UKT4: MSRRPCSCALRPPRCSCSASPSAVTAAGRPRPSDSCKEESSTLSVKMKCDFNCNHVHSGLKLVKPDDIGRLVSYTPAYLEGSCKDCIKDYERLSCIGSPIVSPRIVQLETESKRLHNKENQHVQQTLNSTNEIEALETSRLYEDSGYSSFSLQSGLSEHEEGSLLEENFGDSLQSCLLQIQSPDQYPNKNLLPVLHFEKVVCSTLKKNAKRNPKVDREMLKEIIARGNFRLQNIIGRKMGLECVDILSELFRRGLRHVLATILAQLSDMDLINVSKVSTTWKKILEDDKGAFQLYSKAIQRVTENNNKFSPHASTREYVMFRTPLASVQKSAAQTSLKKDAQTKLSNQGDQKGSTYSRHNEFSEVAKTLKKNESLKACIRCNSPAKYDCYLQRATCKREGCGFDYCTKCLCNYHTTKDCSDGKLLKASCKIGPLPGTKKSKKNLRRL
# UniProt Q8N3Y1: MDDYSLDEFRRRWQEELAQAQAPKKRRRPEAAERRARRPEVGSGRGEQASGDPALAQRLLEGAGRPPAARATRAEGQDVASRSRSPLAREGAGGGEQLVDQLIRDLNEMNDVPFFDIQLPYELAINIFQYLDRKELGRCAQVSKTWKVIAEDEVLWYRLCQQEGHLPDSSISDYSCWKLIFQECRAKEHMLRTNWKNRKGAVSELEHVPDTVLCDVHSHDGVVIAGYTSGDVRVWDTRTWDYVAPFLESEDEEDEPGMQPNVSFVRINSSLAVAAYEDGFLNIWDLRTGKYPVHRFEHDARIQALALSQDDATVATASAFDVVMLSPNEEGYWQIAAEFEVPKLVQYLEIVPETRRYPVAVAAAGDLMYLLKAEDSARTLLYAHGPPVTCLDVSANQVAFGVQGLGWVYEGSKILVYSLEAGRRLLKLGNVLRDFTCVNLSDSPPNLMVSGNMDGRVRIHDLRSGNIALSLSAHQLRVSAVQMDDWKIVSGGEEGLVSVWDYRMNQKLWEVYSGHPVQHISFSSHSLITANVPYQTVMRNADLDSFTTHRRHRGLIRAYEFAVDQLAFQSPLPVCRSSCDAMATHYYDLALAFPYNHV
# UniProt Q14C86: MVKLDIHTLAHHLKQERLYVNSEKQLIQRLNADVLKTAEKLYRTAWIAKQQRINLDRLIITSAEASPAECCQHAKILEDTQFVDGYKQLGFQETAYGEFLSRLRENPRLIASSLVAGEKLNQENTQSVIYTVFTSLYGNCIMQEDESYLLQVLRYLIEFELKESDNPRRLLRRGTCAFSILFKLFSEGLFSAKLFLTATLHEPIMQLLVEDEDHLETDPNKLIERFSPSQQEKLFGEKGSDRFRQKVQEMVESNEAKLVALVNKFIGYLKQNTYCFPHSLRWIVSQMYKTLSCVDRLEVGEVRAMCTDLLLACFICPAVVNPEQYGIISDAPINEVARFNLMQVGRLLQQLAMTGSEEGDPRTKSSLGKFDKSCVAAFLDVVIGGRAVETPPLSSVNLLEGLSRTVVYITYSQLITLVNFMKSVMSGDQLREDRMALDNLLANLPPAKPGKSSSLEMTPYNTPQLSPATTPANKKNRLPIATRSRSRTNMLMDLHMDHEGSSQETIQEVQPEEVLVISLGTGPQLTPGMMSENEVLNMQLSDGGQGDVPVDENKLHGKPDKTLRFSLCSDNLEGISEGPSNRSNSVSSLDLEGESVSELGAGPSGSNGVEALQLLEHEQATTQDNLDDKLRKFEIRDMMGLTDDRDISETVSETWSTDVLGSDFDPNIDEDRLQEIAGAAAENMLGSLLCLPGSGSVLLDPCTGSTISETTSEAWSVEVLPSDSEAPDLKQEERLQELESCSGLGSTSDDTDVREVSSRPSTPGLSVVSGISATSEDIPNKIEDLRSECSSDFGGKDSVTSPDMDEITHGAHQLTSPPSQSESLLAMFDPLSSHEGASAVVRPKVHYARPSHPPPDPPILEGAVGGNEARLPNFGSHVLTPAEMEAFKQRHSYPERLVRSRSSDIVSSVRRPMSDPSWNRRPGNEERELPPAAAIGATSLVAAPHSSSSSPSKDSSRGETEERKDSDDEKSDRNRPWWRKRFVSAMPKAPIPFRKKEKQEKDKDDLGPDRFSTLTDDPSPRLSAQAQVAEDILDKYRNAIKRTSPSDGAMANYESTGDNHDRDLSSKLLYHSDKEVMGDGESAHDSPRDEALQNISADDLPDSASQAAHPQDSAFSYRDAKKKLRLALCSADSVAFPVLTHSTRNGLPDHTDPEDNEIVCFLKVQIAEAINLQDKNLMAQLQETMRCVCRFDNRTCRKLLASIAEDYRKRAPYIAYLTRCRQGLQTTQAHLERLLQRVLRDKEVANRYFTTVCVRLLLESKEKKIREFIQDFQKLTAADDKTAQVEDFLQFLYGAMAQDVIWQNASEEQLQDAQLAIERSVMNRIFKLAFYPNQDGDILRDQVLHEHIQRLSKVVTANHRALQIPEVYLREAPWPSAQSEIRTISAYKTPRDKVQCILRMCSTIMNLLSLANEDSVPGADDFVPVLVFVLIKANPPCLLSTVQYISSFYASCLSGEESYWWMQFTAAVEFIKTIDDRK
# UniProt Q06547, whole entry, looked up: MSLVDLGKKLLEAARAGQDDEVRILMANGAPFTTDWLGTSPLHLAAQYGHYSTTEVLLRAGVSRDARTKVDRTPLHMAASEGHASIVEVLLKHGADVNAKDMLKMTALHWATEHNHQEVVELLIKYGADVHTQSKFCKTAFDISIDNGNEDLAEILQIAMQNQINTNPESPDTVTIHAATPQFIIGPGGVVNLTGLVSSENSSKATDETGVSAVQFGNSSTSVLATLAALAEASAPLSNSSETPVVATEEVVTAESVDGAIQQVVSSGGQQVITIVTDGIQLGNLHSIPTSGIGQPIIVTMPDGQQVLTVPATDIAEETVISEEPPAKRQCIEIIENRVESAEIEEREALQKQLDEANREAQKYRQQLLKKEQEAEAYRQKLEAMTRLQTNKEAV
# UniProt Q96AC1, 498-525: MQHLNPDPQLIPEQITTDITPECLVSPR
# UniProt O94915, 888-907: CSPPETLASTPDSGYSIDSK
# The list shows a part of the results. The data scatter; read single values as rough.
# What was measured:
# [1] = compound: ClCC(=O)N[C@@H]1CCCc2ccccc12; assay: log2 mean competition ratio of IA-DTB cysteine labelling (DMSO/compound) (log2 ratio); higher = stronger cysteine engagement by compound; settings: treatment time: 4 h, cell line lysate: HEK293T
# Protocol: (§1)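 IA-DTB competitive cysteine chemoproteomics in HEK293T RIPA lysate. Lysates were treated with compound 29 or 30 at 50 or 200 µM for 4 h, then IA-DTB (500 µM, 1 h), trypsin-digested, NeutrAvidin-enriched and analysed by diaPASEF. Competition ratio = intensity DMSO / intensity compound (n=4 treated, n=64 DMSO); binding: mean log2 CR ≥ 1 and p ≤ 0.05 plus QC filters. Target is the cysteine site.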
# [2] = compound: ClCC(=O)N[C@H]1CCCc2ccccc12; assay: as above; settings: treatment time: 4 h, cell line lysate: HEK293T
# Protocol: as §1
target,measurement,setting,value
FASN C212,log2 mean competition ratio,[1]; 50 µM,-0.118
same,log2 mean competition ratio,[1]; 200 µM,0.14
same,log2 mean competition ratio,[2]; 50 µM,-0.231
same,log2 mean competition ratio,[2]; 200 µM,0.124
FUCA2 C277 (UniProt Q9BTY2),log2 mean competition ratio,[1]; 50 µM,0.233
same,log2 mean competition ratio,[1]; 200 µM,0.428
same,log2 mean competition ratio,[2]; 50 µM,0.117
same,log2 mean competition ratio,[2]; 200 µM,0.192
FLNA C2582,log2 mean competition ratio,[1]; 50 µM,-0.221
same,log2 mean competition ratio,[1]; 200 µM,-0.106
same,log2 mean competition ratio,[2]; 50 µM,0.165
same,log2 mean competition ratio,[2]; 200 µM,0.0376
FKBP5 C215 (UniProt Q13451),log2 mean competition ratio,[1]; 50 µM,-0.0507
same,log2 mean competition ratio,[1]; 200 µM,-0.304
same,log2 mean competition ratio,[2]; 50 µM,-0.453
same,log2 mean competition ratio,[2]; 200 µM,-0.282
GAB1 C374 (UniProt Q13480),log2 mean competition ratio,[1]; 50 µM,-0.123
same,log2 mean competition ratio,[1]; 200 µM,0.18
same,log2 mean competition ratio,[2]; 50 µM,0.295
same,log2 mean competition ratio,[2]; 200 µM,0.393
FARS2 C334 (UniProt O95363),log2 mean competition ratio,[1]; 50 µM,-0.212
same,log2 mean competition ratio,[1]; 200 µM,-0.188
same,log2 mean competition ratio,[2]; 50 µM,-0.216
same,log2 mean competition ratio,[2]; 200 µM,-0.0399
GART C298,log2 mean competition ratio,[1]; 50 µM,-0.0901
same,log2 mean competition ratio,[1]; 200 µM,-0.378
same,log2 mean competition ratio,[2]; 50 µM,-0.205
same,log2 mean competition ratio,[2]; 200 µM,-0.00443
FLNC C2660 (UniProt Q14315),log2 mean competition ratio,[1]; 50 µM,-0.182
same,log2 mean competition ratio,[1]; 200 µM,0.04
same,log2 mean competition ratio,[2]; 50 µM,-0.0439
same,log2 mean competition ratio,[2]; 200 µM,0.151
FBXO5 C95 (UniProt Q9UKT4),log2 mean competition ratio,[1]; 50 µM,0.209
same,log2 mean competition ratio,[1]; 200 µM,0.0927
same,log2 mean competition ratio,[2]; 50 µM,-0.251
same,log2 mean competition ratio,[2]; 200 µM,0.00134
FBXW8 C184 (UniProt Q8N3Y1),log2 mean competition ratio,[1]; 50 µM,0.111
same,log2 mean competition ratio,[1]; 200 µM,-0.221
same,log2 mean competition ratio,[2]; 50 µM,0.537
same,log2 mean competition ratio,[2]; 200 µM,-0.0495
GAPVD1 C275 (UniProt Q14C86),log2 mean competition ratio,[1]; 50 µM,0.261
same,log2 mean competition ratio,[1]; 200 µM,0.0667
same,log2 mean competition ratio,[2]; 50 µM,-0.334
same,log2 mean competition ratio,[2]; 200 µM,-0.103
GABPB1 C331 (UniProt Q06547),log2 mean competition ratio,[1]; 50 µM,-0.434
same,log2 mean competition ratio,[1]; 200 µM,-0.138
same,log2 mean competition ratio,[2]; 50 µM,-0.211
same,log2 mean competition ratio,[2]; 200 µM,-0.0403
FBXO5 C389 (UniProt Q9UKT4),log2 mean competition ratio,[1]; 50 µM,0.164
same,log2 mean competition ratio,[1]; 200 µM,-0.111
same,log2 mean competition ratio,[2]; 50 µM,0.64
same,log2 mean competition ratio,[2]; 200 µM,-0.247
FERMT2 C520 (UniProt Q96AC1),log2 mean competition ratio,[1]; 50 µM,0.114
same,log2 mean competition ratio,[1]; 200 µM,0.137
same,log2 mean competition ratio,[2]; 50 µM,-0.154
same,log2 mean competition ratio,[2]; 200 µM,-0.181
FRMD6 C531,log2 mean competition ratio,[1]; 50 µM,0.103
same,log2 mean competition ratio,[1]; 200 µM,-0.0101
same,log2 mean competition ratio,[2]; 50 µM,0.473
same,log2 mean competition ratio,[2]; 200 µM,0.289
FRYL C888 (UniProt O94915),log2 mean competition ratio,[1]; 50 µM,0.295
same,log2 mean competition ratio,[1]; 200 µM,-0.232
same,log2 mean competition ratio,[2]; 50 µM,-0.00548
same,log2 mean competition ratio,[2]; 200 µM,-0.402
GAB1 C8 (UniProt Q13480),log2 mean competition ratio,[1]; 50 µM,0.0686
same,log2 mean competition ratio,[1]; 200 µM,-0.00887
same,log2 mean competition ratio,[2]; 50 µM,-0.0811
same,log2 mean competition ratio,[2]; 200 µM,0.267

# A second format for some results above:
target	measurement	setting	value
FUCA2 C277 (UniProt Q9BTY2)	log2 mean competition ratio	[1]; 50 µM	0.233
same	log2 mean competition ratio	[1]; 200 µM	0.428

# As a short view, part of the list above.
target,measurement,setting,value
FARS2 C334 (UniProt O95363),log2 mean competition ratio,[1]; 50 µM,-0.212
same,log2 mean competition ratio,[1]; 200 µM,-0.188
